Data reported in article PMC7028368.
No constants are given. Whether binding was seen depends on the method and setting. In cells and extracts the contact can be indirect. Some binding calls cover weakened binding; strength is not graded here.

The chains behind the UniProt entries cited, without tags or fusion partners. Residues count along the entry.
UniProt P28738, residues 681-956: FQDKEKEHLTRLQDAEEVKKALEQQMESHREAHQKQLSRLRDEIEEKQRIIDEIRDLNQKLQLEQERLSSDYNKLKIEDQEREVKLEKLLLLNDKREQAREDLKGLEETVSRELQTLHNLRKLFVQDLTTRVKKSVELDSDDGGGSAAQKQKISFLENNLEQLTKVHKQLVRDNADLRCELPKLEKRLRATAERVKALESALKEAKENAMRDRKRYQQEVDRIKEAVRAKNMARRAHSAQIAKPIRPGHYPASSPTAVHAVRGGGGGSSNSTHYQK
UniProt Q61768, residues 680-963: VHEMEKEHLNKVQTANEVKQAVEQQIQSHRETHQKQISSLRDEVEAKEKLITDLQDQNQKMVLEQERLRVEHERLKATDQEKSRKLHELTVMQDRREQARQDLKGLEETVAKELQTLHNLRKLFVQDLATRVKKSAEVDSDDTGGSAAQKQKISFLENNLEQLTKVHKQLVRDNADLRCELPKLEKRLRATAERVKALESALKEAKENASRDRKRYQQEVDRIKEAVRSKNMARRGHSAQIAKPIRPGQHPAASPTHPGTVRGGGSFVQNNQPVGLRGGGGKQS
UniProt P33175, residues 677-1027: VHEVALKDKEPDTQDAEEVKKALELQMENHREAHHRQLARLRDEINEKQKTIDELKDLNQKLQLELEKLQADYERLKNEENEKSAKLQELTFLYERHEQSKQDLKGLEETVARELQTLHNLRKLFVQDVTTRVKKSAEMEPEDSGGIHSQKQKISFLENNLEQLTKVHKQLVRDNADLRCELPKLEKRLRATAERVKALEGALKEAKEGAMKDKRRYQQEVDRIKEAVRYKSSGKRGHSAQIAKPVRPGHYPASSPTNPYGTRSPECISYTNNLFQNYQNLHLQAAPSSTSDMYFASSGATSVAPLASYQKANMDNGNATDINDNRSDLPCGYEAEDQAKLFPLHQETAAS

Columns and labels:
Test in all cases: pull-down; equimolar GST-fused carboxyl-terminal KIF5 fragments with glutathione sepharose beads and pre-cleared mouse forebrain lysate (Tris buffer: 20 mM Tris, 150 mM NaCl, 1 mM EDTA, 1 mM EGTA, 5 mM NaF, 0.5% NP40), 4°C for 2 hr; Western blot; only the target purified
[1] = target: GST-fused KIF5C (aa 681–956) (mouse) (UniProt P28738)
[2] = target: GST-fused KIF5B (aa 680–963) (mouse) (UniProt Q61768)
[3] = target: GST-fused KIF5A (a.a.677–1027) (mouse) (UniProt P33175)

Measured: binding

B1: Ras GTPase-activating protein-binding protein G3BP2 (protein, UniProt P97379 1-482)
chain: MVMEKPSPLLVGREFVRQYYTLLNKAPEYLHRFYGRNSSYVHGGVDASGKPQEAVYGQNDIHHKVLSLNFSECHTKIRHVDAHATLSDGVVVQVMGLLSNSGQPERKFMQTFVLAPEGSVPNKFYVHNDMFRYEDEVFGDSEPELDEESEDEVEEEQEDRQPSPEPVQENANSAYYDAHPVTNGIEEPLEESSHEPEPEPESETKTEELKPQVEEKHLEELEEKSATPPPAEPASLPQEPPKAFSWASVTSKNLPPSGTVSSSGIPPHVKAPVSQPRVDAKPEVQSQPPRVREQRPRERPGFPPRGPRPGRGDMEQNDSDNRRIIRYPDSHQLFVGNLPHDIDENELKEFFMSFGNVVELRINTKGVGGKLPNFGFVVFDDSEPVQRILIAKPIMFRGEVRLNVEEKKTRAARERETRGGGDDRRDIRRNDRGPGGPRGIVGGGMMRDRDGRGPPPRGGMTQKLGSGRGTGQMEGRFTGQRR
binds: all assays above
